Measured values: the supplement of paper PMC5711842
Structures can show the parent of a compound that is named as a salt. Single values of this set are uncertain.

System: Danio rerio embryo
Experiment: lowest lethal concentration (of 2, 10, 50 µM tested), 10-36 hpf treatment; higher = less toxic
Settings: treatment window: 10-36 hpf

SMILES	lowest lethal concentration [µM]
NC(=O)c1ncn([C@@H]2O[C@H](CO)[C@@H](O)[C@H]2O)c1N [Acadesine]	> 50
COc1cc(C(C)=O)ccc1O [Acetovanillone]	> 50
Nc1ncnc2nc(-c3ccc(N4CCOCC4)nc3)cc(-c3cccc(Br)c3)c12 [Adenosine Kinase Inhibitor]	> 50
CCN(CC)CCCCN1c2ccccc2Oc2ccc(Cl)cc21 [Akt Inhibitor X]	> 50
O=c1[nH]c2ccccc2n1C1CCN(Cc2ccc(-c3[nH]c4cc5ncnc5cc4nc3-c3ccccc3)cc2)CC1 [Akt inhibitor VIII]	> 50
O=C(O)CN1C(=O)c2cccc3cccc(c23)C1=O [Alrestatin]	> 50
CCCCc1oc2ccccc2c1C(=O)c1cc(I)c(OCCN(CC)CC)c(I)c1 [Amiodarone]	> 50
O=C1CCCC(=O)C1CC1C(=O)CCCC1=O [Apoptosis Inhibitor]	50
COc1cccc2c1cc([N+](=O)[O-])c1c(C(=O)O)cc3c(c12)OCO3 [Aristolochic Acid]	> 50
O=C(Nc1cccc(Nc2nccc(Nc3cccc(C(F)(F)F)c3)n2)c1)C1CC1 [Aurora Kinase Inhibitor III]	> 50
CSCC[C@H](NC(=O)[C@H](Cc1ccccc1)NC[C@@H](NC[C@@H](N)CS)C(C)C)C(=O)O [B581]	> 50
C[C@@H](NC(=O)c1cc(C(=O)N[C@@H](Cc2ccccc2)[C@H](O)CNC2CC2)cc(N(C)S(C)(=O)=O)c1)c1ccccc1 [BACE-1 Inhibitor]	> 50
O=Nc1c(-c2c(O)[nH]c3cc(Br)ccc23)[nH]c2ccccc12 [BIO]	> 50
Cn1cnc2cc3c(Nc4cccc(Br)c4)ncnc3cc21 [BPIQ-I]	10
N#Cc1cc([N+](=O)[O-])c2sc(C(N)=O)[n+]([O-])c2c1 [BTO-1]	> 50
CC(/C=C/c1cccc(Oc2ccc(F)cc2)c1)N(O)C(N)=O (stereo unspecified) [BW B70C]	> 50
O=c1cc(-c2ccccc2)oc2cc(O)c(O)c(O)c12 [Baicalein]	50
Cc1ccc(S(=O)(=O)/C=C/C#N)cc1 [Bay 11-7082]	10
N/C(=N\C(=O)c1nc(Cl)c(N)nc1N)NCc1ccccc1 [Benzamil]	> 50
CC(C)(Oc1ccc(CCNC(=O)c2ccc(Cl)cc2)cc1)C(=O)O [Bezafibrate]	> 50
c1cc(CN2CCCNCCNCCCNCC2)ccc1CN1CCCNCCNCCCNCC1 [Bicyclam]	> 50
CN(C)CCCn1cc(C2=C(c3c[nH]c4ccccc34)C(=O)NC2=O)c2ccccc21 [Bisindolylmaleimide I HCl]	> 50
CN(C)CCCn1cc(C2=C(c3c[nH]c4ccccc34)C(=O)NC2=O)c2ccccc21 [Bisindolylmaleimide I]	> 50
Cc1nnsc1C(=O)Nc1ccc(-n2nc(C(F)(F)F)cc2C(F)(F)F)cc1 [Btp2]	> 50
N#C/C(=C/c1ccc(O)c(O)c1)C(=O)OC/C=C/c1ccccc1 [CDC]	50
Nc1c(S(=O)(=O)O)cc(S(=O)(=O)O)c2cccc(O)c12 [CaMKP Inhibitor]	> 50

SMILES	lowest lethal concentration [µM]
Clc1ccc(C(c2ccc(Cl)cc2)[n+]2ccn(CC(OCc3ccc(Cl)cc3Cl)c3ccc(Cl)cc3Cl)c2)cc1 (stereo unspecified) [Calmidazolium Chloride]	50
CCCC[C@@H](C=O)NC(=O)[C@H](CC(C)C)NC(=O)OCc1ccccc1 [Calpeptin]	> 50
COC[C@@H]([C@H](O)[C@H](O)C(=O)NCC[C@H](C)c1nc(/C=C/C[C@@H]2O[C@]3(C[C@@H](O)[C@@H]2C)O[C@H]([C@H](C[C@H](O)[C@H](C)[C@H](O)[C@H](C)/C=C(C)/C(C)=C/C=C/C(C)=C\C#N)OC)[C@H](OP(=O)(O)O)C3(C)C)co1)N(C)C [Calyculin A]	50
O=c1[nH]c(=S)[nH]c(-c2ccccc2)c1Cc1c(O)ccc2ccccc12 [Cambinol]	> 50
CCCCC[C@H](O)/C=C/[C@@H]1[C@H]2C/C(=C/CCCC(=O)O)C[C@H]2C[C@H]1O [Carbacyclin]	> 50
O[C@H]1[C@H](O)[C@@H](O)CN2CC[C@H](O)[C@H]12 [Castanospermine]	> 50
CC(C)c1nn(-c2c(Cl)cccc2Cl)c2nc(Cc3ccc(OCCO)cc3)[nH]c(=O)c12 [Cdk/Crk Inhibitor]	10
COc1cc2c(c(OC)c1OC)-c1ccc(OC)c(=O)cc1C(NC(C)=O)CC2 (stereo unspecified) [Colchine]	> 50
O=c1cc(N2CCOCC2)nc2c3ccccc3ccn12 [Compound 401]	> 50
NC(=O)[C@H]1CCCCc2c1[nH]c1ccc(Cl)cc21 [Compound (S)-35]	> 50
C[C@H](NC(=O)Cc1cc(F)cc(F)c1)C(=O)N[C@H]1N=C(c2ccccc2)c2ccccc2N(C)C1=O [Compound E]	> 50
C[C@]12C[C@H](O)[C@H]3[C@@H](CCC4=CC(=O)CC[C@@]43C)[C@@H]1CC[C@@H]2C(=O)CO [Corticosterone]	> 50
C[C@H]1COC2=C1C(=O)C(=O)c1c2ccc2c1CCCC2(C)C [Cryptotanshinone]	50
CC1(C)C(C=C(Cl)Cl)C1C(=O)OC(C#N)c1cccc(Oc2ccccc2)c1 (stereo unspecified) [Cypermethrin]	> 50
CCCCCCCCCCCCCC(=O)N[C@H](C)[C@@H](O)c1ccccc1 [D-erythro-MAPP]	> 50
C=C1O[C@@](CO)(n2cnc3c(N)ncnc32)[C@H](O)[C@@H]1O [Decoyinine]	> 50
O=c1c2ccccc2[nH]c(=S)n1CCN1CCC(=C(c2ccc(F)cc2)c2ccc(F)cc2)CC1 [Diacylglycerol Kinase Inhibitor II]	> 50
c1ccc2c(c1)[I+]c1ccccc1-2 [Diphenyleneiodonium]	> 50
COc1cc2c3cc1Oc1c(OC)c(OC)cc4c1[C@@H](Cc1ccc(OC(=O)c5ccc([N+](=O)[O-])cc5)c(c1)Oc1ccc(cc1)C[C@@H]3N(C)CC2)N(C)CC4 [E6 Berbamine]	> 50
NC(=NN=Cc1ccc(-c2cccc([N+](=O)[O-])c2)o1)N[N+](=O)[O-] [ERK Inhibitor III]	> 50
CCOc1ccccc1-n1c(C(C)N2CCN(C(=O)COc3ccc(Cl)cc3)CC2)nc2ccccc2c1=O (stereo unspecified) [Erastin]	> 50
Cc1cc([N+](=O)[O-])ccc1NS(=O)(=O)c1cc(Cl)ccc1Cl [FH535]	10
O=Cc1c2[nH]c3ccccc3c2cc2[nH]c3ccccc3c12 [FICZ]	> 50
c1ccc(-c2cnc(Nc3ccc(OCCN4CCCC4)cc3)s2)cc1 [Flt-3 Inhibitor III]	> 50
O=C(c1cc2cc(O)ccc2[nH]1)c1cc2cc(O)ccc2[nH]1 [Flt-3 Inhibitor II]	> 50
COc1ccc(C(=O)Nc2sc3c(c2C(N)=O)CCCC3)cc1OC [Flt-3 Inhibitor]	> 50

SMILES	lowest lethal concentration [µM]
CCCC[C@@H](C)[C@@H](OC(=O)C[C@@H](CC(=O)O)C(=O)O)[C@H](C[C@@H](C)C[C@H](O)CCCC[C@@H](O)C[C@H](O)[C@H](C)N)OC(=O)C[C@@H](CC(=O)O)C(=O)O [Fumonisin B1]	> 50
CC(=O)c1ccc2c(c1)[C@@H]1C=CC[C@@H]1[C@H](c1cc3c(cc1Br)OCO3)N2 [G-1]	> 50
c1cc(-c2sc(-c3ccncc3)c(-c3ccncc3)c2-c2ccncc2)ccn1 [GANT58]	> 50
CC(C)n1nnc2cc(C(=O)O)ccc21 [GPR109b Agonist]	> 50
Ic1cccc(CSc2nnc(-c3ccncc3)o2)c1 [GSK-3 Inhibitor II]	> 50
CC(=O)O/N=C1/C(c2c(O)[nH]c3cc(Br)ccc23)=Nc2ccccc21 [GSK-3 Inhibitor X]	> 50
O=C1NC(=O)C(c2cn(CCCO)c3ncccc23)=C1c1cnccn1 [GSK-3beta Inhibitor XI]	> 50
COc1ccc(COc2ccc(Cc3cnc(N)nc3N)cc2OC)cc1 [GW2580]	> 50
O=C(O)CCc1ccc(NCc2cccc(Oc3ccccc3)c2)cc1 [GW9508]	> 50
O=C1Nc2ccc(I)cc2/C1=C/c1cc(Br)c(O)c(Br)c1 [GW-5074]	> 50
O=C1OC2(c3ccccc31)c1ccc(O)c(O)c1Oc1c2ccc(O)c1O [Gallein]	> 50
CCCCC[C@H](O)CC(=O)CCc1ccc(O)c(OC)c1 [Gingerol]	> 50
O=S(=O)(NCCNC/C=C/c1ccc(Br)cc1)c1cccc2cnccc12 [H-89]	> 50
COC(=O)c1ccc(O)c(NC(=O)COc2ccc(C34CC5CC(CC(C5)C3)C4)cc2)c1 [HIF-1 Inhibitor]	> 50
CC(=O)OCOC(c1ccc2ccccc2c1)P(=O)(OCOC(C)=O)OCOC(C)=O (stereo unspecified) [HNMPA-(AM)3]	> 50
NS(=O)(=O)c1ccc(NC(=O)C(C(F)(F)F)C(F)(F)F)cc1 [Hdm2 E3 Ligase Inhibitor]	> 50
C=C1C(=O)O[C@@H]2C[C@@H](C)[C@@H]3C=CC(=O)[C@@]3(C)[C@@H](O)[C@H]12 [Helenalin]	> 50
CNC(=O)[C@H]1O[C@@H](n2cnc3c(NCc4cccc(I)c4)ncnc32)[C@H](O)[C@@H]1O [IB-MECA]	> 50
COCc1nc2c([nH]1)c(=O)n(C)c(=O)n2CC(C)C [IBMX]	> 50
COc1cc(OC)c(C=C2C(=O)Nc3ccccc32)c(OC)c1 [IC261]	10
COc1ccc(Cl)cc1NC(=O)Nc1cc(C)nc2ccccc12 [IGF-1R Inhibitor II]	> 50
O=C(c1ccc(Nc2nccc(-c3cc4ccccc4s3)n2)cc1)N1CCC(N2CCCC2)CC1 [IKK Inhibitor VII]	> 50
Cc1ccccc1N1C(=O)/C(=C/C=C/c2ccccc2)SC1=S [IMB-10]	> 50
O=[N+]([O-])c1ccc(CNc2nc(NCc3cccc(C(F)(F)F)c3)nc3nc[nH]c23)cc1 [IP3K Inhibitor]	> 50

Part of the list above, as comma-separated lines:
SMILES,lowest lethal concentration [µM]
Ic1cccc(CSc2nnc(-c3ccncc3)o2)c1 [GSK-3 Inhibitor II],> 50
CC(=O)O/N=C1/C(c2c(O)[nH]c3cc(Br)ccc23)=Nc2ccccc21 [GSK-3 Inhibitor X],> 50
O=C1NC(=O)C(c2cn(CCCO)c3ncccc23)=C1c1cnccn1 [GSK-3beta Inhibitor XI],> 50
COc1ccc(COc2ccc(Cc3cnc(N)nc3N)cc2OC)cc1 [GW2580],> 50
O=C(O)CCc1ccc(NCc2cccc(Oc3ccccc3)c2)cc1 [GW9508],> 50
O=C1Nc2ccc(I)cc2/C1=C/c1cc(Br)c(O)c(Br)c1 [GW-5074],> 50
O=C1OC2(c3ccccc31)c1ccc(O)c(O)c1Oc1c2ccc(O)c1O [Gallein],> 50
CCCCC[C@H](O)CC(=O)CCc1ccc(O)c(OC)c1 [Gingerol],> 50
O=S(=O)(NCCNC/C=C/c1ccc(Br)cc1)c1cccc2cnccc12 [H-89],> 50
COC(=O)c1ccc(O)c(NC(=O)COc2ccc(C34CC5CC(CC(C5)C3)C4)cc2)c1 [HIF-1 Inhibitor],> 50
CC(=O)OCOC(c1ccc2ccccc2c1)P(=O)(OCOC(C)=O)OCOC(C)=O (stereo unspecified) [HNMPA-(AM)3],> 50
NS(=O)(=O)c1ccc(NC(=O)C(C(F)(F)F)C(F)(F)F)cc1 [Hdm2 E3 Ligase Inhibitor],> 50
C=C1C(=O)O[C@@H]2C[C@@H](C)[C@@H]3C=CC(=O)[C@@]3(C)[C@@H](O)[C@H]12 [Helenalin],> 50
CNC(=O)[C@H]1O[C@@H](n2cnc3c(NCc4cccc(I)c4)ncnc32)[C@H](O)[C@@H]1O [IB-MECA],> 50
COCc1nc2c([nH]1)c(=O)n(C)c(=O)n2CC(C)C [IBMX],> 50
COc1cc(OC)c(C=C2C(=O)Nc3ccccc32)c(OC)c1 [IC261],10
COc1ccc(Cl)cc1NC(=O)Nc1cc(C)nc2ccccc12 [IGF-1R Inhibitor II],> 50
O=C(c1ccc(Nc2nccc(-c3cc4ccccc4s3)n2)cc1)N1CCC(N2CCCC2)CC1 [IKK Inhibitor VII],> 50
Cc1ccccc1N1C(=O)/C(=C/C=C/c2ccccc2)SC1=S [IMB-10],> 50
O=[N+]([O-])c1ccc(CNc2nc(NCc3cccc(C(F)(F)F)c3)nc3nc[nH]c23)cc1 [IP3K Inhibitor],> 50
